# Source: publication PMC11361582
# The chains behind the UniProt entries cited, without tags or fusion partners. Residues count along the entry.
# UniProt E1WAU5, residues 923-1259: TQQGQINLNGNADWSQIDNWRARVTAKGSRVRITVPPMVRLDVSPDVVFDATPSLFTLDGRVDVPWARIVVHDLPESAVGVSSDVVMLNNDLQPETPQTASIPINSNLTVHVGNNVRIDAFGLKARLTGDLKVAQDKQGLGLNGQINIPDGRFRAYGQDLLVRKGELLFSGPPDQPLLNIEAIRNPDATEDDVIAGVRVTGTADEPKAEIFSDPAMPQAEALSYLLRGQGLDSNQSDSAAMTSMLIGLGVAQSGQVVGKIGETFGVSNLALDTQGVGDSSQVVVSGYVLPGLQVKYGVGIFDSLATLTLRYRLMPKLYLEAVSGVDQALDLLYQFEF
# UniProt E1WAU4, residues 21-265: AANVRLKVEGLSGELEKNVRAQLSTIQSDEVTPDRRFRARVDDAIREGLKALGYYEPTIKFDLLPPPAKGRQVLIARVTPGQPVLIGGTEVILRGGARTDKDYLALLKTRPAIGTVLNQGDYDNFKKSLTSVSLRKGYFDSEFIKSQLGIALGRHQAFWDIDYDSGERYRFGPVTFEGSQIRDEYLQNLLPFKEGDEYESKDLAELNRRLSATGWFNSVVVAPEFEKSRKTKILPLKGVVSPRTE
# These are yes or no findings as the source states them, for the method shown. Binding seen in cells or lysates may run through a third protein. Some entries that bind do so weakly or less than the wild type.
# Molecular target: GST-tagged Salmonella Typhimurium TamB DUF490 domain (aa 923-1259) (Salmonella enterica serovar Typhimurium 14028s) (UniProt E1WAU5)
# Assay: pull-down; GST-tagged bait and N-terminally 6xHis-tagged prey co-expressed in one E. coli BL21 DE3 strain; lysate (0.1 x PBS, 50 mM EDTA, 1 mM DTT, about 1% Triton X-100; ATP and MgSO4 added, 37°C 10 min) bound to glutathione agarose 15 min at room temperature; washed 8 times with 50 mM Tris-Cl, 300 mM NaCl, 50 mM EDTA, pH 7.5 and twice with PBS; bound beads analysed by immunoblot with anti-GST and anti-His antibodies
substance,measurement,value
6xHis-tagged Salmonella Typhimurium TamA POTRA1-3 (aa 21-265) (from UniProt E1WAU4 21-265) (domain or fragment),binding,binds
